Laboratory results from publication PMC7819943, “Rice protein-binding microarrays: a tool to detect cis-acting elements near promoter regions in rice”.
Some of the results follow.

biological target: T1, OsSMF1 (Oryza sativa, UniProt Q6ZLB0 1-436); test: protein-binding microarray (RPBM); PBS, 2% BSA, 51.3 ng/ul salmon testes DNA, 50 uM zinc acetate, 200 nM TF, 25 C, 1 h; high values mean tight binding; conditions: protein: recombinant; tags: N-terminal polyhistidine and DsRed monomer fusion (pET32a); chain copies: 2; label: CyDye5-dUTP incorporated in the synthesized complementary strand; 3' TTTTT single-stranded linker to array surface; dsDNA, one strand shown
T1 sequence: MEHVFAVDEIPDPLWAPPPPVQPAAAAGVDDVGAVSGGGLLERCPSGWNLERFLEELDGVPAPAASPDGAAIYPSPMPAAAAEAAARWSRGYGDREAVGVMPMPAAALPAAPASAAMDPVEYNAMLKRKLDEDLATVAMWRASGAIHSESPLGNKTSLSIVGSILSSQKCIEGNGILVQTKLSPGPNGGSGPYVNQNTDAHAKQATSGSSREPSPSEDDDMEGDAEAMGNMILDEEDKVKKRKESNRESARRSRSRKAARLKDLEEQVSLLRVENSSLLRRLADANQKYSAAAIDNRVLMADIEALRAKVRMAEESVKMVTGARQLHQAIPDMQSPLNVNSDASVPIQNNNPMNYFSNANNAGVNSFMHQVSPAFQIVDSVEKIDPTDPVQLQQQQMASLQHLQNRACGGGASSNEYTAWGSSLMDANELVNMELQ
Procedure, shortened: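 An Axon 4000B scanner gave the binding signal as per-feature fluorescence intensity in arbitrary units. This followed washing of a custom Agilent array that had been incubated for 1 h at 25 °C with 200 nM protein in PBS, 2% BSA, salmon testes DNA and 50 µM zinc acetate. The proteins were transcription factors fused at the N-terminus to polyhistidine and DsRed, expressed in E. coli BL21-CodonPlus and purified on Ni–NTA.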

| Sequence | binding signal |
| --- | --- |
| CTCATGATGGCTTTATCAATATCAAGATTTGATGACTCAGCGGAGTCACCTAGTGCAG | 15400 fluorescence intensity (a.u.) |
| TACGTACGTGCCGCTTTCGCCACGCGCCATGCATGCACCACGGAGTCACCTAGTGCAG | 4990 fluorescence intensity (a.u.) |
| TCTTCAGCTGAAGCACATGATTCATCAAGTATATGGAAGCCGGAGTCACCTAGTGCAG | 3570 fluorescence intensity (a.u.) |
| GGATCCAGCTCATGTACGTTACATTACACCCTCTTCTCGTCGGAGTCACCTAGTGCAG | 5720 fluorescence intensity (a.u.) |
| CTCTCCACTTCTCTCCTCCACCTCATCACCCAATCCAATGCGGAGTCACCTAGTGCAG | 4660 fluorescence intensity (a.u.) |
| GTCTCGCCACATACTACGCTTCAGTCTTCTTCTTCCTCCACGGAGTCACCTAGTGCAG | 4720 fluorescence intensity (a.u.) |
| GGTCGGAGGTGCATCGAAATGCACAACCAAAGCCACATGCCGGAGTCACCTAGTGCAG | 15800 fluorescence intensity (a.u.) |
| TCAAGCTATACCTGGGGCGGAATCTGGCTGTCCCCAAAGTCGGAGTCACCTAGTGCAG | 3500 fluorescence intensity (a.u.) |
| TGAACCTCGAAGATGCAAATATGTAGTAGTACGTAGGTCCCGGAGTCACCTAGTGCAG | 3310 fluorescence intensity (a.u.) |
| CTTTCTCTCTCTTGGAATCAACTGGAAAGCTAGGCACGCACGGAGTCACCTAGTGCAG | 3360 fluorescence intensity (a.u.) |
| TGTCCATCTCTAGGTACACGTGGCTGGTGCCAACCCACATCGGAGTCACCTAGTGCAG | 16300 fluorescence intensity (a.u.) |
| GCCGCGTCTATACGCGATCTCGATGACACGTGGGGCCGGACGGAGTCACCTAGTGCAG | 7710 fluorescence intensity (a.u.) |
| TCTCGCGCCTCGCTGCCACGCCGCGCCGACGCCGTCGCCCCGGAGTCACCTAGTGCAG | 3160 fluorescence intensity (a.u.) |
| ATGCCCATTTTGTAGCGTCGATTCTTGTTTCTGCTTGATTCGGAGTCACCTAGTGCAG | 3630 fluorescence intensity (a.u.) |
| CGACTGTAGTATATGGCGTCATATTTCTAACAACTCCGATCGGAGTCACCTAGTGCAG | 12100 fluorescence intensity (a.u.) |
| GATATGCGGCTAAGATCGAGGCATGACACGAGTTTTCGGACGGAGTCACCTAGTGCAG | 5220 fluorescence intensity (a.u.) |
| CCATTTTGTCAGGAACCAGAGTGATGTTGATGCAATCATGCGGAGTCACCTAGTGCAG | 3150 fluorescence intensity (a.u.) |
| TAGCTCAGGGCCTAGGATTCAGAGCCCATATAGAGACATACGGAGTCACCTAGTGCAG | 3180 fluorescence intensity (a.u.) |
| AGTTGCAACACAACATGTTATTCCATCTTTACAGGGTGCCCGGAGTCACCTAGTGCAG | 4000 fluorescence intensity (a.u.) |
| ACCAACGAACGGACGCTGTCATGTCACCTCTCTTAATCTTCGGAGTCACCTAGTGCAG | 3740 fluorescence intensity (a.u.) |
| ACCGGCTGATCTGCCGCCTGACGACGTGCACGGCCGCCGGCGGAGTCACCTAGTGCAG | 3300 fluorescence intensity (a.u.) |
| ATGTCTCGTTATCTCCTAAACATGTCATTACACTGGAAACCGGAGTCACCTAGTGCAG | 3240 fluorescence intensity (a.u.) |
| GTATTAGTGGATAATGATGTAACATATTTGCATGTTTAGCCGGAGTCACCTAGTGCAG | 17800 fluorescence intensity (a.u.) |

Some of the entries above in another layout.
TGTCCATCTCTAGGTACACGTGGCTGGTGCCAACCCACATCGGAGTCACCTAGTGCAG
  binding signal = 16300 fluorescence intensity (a.u.)
CCATTTTGTCAGGAACCAGAGTGATGTTGATGCAATCATGCGGAGTCACCTAGTGCAG
  binding signal = 3150 fluorescence intensity (a.u.)
